# Experimental data taken from patent US20210139893.
# Target: T1, RNase H (Escherichia coli) (UniProt P0A7Y4)
# T1 sequence (looked up, limits assumed): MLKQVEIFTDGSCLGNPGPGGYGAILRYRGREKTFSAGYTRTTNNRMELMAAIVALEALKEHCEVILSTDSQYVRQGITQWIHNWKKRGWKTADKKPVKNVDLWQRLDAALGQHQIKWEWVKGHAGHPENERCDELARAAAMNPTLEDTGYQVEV
# Test: enzyme reaction in vitro
# Settings: [strand 1: 1 (5' F label)], purified recombinant protein, label: 5' 6-FAM on RNA, DNA:RNA hybrid, letters built from the parent sequence and the stated change
sequence,measurement,setting,value
ACUGUGCGUGGAAAGCGUAG / ACGCTTTCCACGCACA [F-rA-20 / dA16i heteroduplex],activity on this sequence,"conventional ASO control, 1 mM MgCl2, 20 mM KCl, 37 C",active
ACUGUGCGUGGAAAGCGUAG / TTGGGTGGGTGGGTGGGTTACGCTTTCCACGCACATTGGGTGGGTGGGTGGGT [F-rA-20 / dG4TT-A16i-TTG4 heteroduplex],activity on this sequence,"G4 at both ends compatible with RNase H, 1 mM MgCl2, 20 mM KCl, 37 C, variant of F-rA-20 / dA16i heteroduplex",active
ACUGUGCGUGGAAAGCGUAG / CTACGCTTTCCACGCACAGT [F-rA-20 / d20A heteroduplex],activity on this sequence,"RNA strand degraded, 20 mM Tris-HCl pH 7.5, 20 mM KCl, 1 mM MgCl2, 37 C, 1 h",active
ACUGUGCGUGGAAAGCGUAG / TTGGGTGGGTGGGTGGGTTCTACGCTTTCCACGCACAGT [F-rA-20 / dA20-G4 heteroduplex],activity on this sequence,"G4 at 5' end compatible with RNase H, 1 mM MgCl2, 20 mM KCl, 37 C, variant of F-rA-20 / d20A heteroduplex",active
ACUGUGCGUGGAAAGCGUAG / CTACGCTTTCCACGCACAGTTTGGGTGGGTGGGTGGGTT [F-rA-20 / dG4-20A heteroduplex],activity on this sequence,"G4 at 3' end compatible with RNase H, 1 mM MgCl2, 20 mM KCl, 37 C, variant of F-rA-20 / d20A heteroduplex",active

# Protein sequences can lack the tags named with them.
